Laboratory results reported in article doi:10.1101/2023.04.03.535356.
These are yes or no findings as the source states them, for the method shown. Binding seen in cells or lysates may run through a third protein. Binding can be weak; no strength is given.

Chains of the proteins cited; added tags and fusions are not shown. Lines headed by an entry give the natural chain unless they say otherwise; changes in a name come on top.
UniProt Q8VCW4: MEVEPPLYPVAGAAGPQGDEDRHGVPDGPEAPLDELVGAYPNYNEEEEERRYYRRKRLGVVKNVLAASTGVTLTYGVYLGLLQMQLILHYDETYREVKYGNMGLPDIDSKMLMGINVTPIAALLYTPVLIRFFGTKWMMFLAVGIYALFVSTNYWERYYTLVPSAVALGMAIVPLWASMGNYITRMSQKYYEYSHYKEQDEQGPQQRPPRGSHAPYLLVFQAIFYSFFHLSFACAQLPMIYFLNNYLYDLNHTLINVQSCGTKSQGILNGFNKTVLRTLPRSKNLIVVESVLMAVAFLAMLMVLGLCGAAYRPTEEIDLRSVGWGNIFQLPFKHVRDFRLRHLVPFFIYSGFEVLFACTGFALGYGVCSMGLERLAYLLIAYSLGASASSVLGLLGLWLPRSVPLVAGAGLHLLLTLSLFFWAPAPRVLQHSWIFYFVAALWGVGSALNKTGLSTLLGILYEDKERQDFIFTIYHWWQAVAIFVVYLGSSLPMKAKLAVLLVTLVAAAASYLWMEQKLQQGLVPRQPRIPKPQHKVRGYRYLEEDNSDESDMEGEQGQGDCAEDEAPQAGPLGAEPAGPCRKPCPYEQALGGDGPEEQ

Molecular target: Flag-tagged Unc93b1 allele that includes the D34A mutation (UniProt Q8VCW4)
Experiment: co-IP

B1: endogenous Arl8b (protein, UniProt Q9CQW2 1-186)
chain: MLALISRLLDWFRSLFWKEEMELTLVGLQYSGKTTFVNVIASGQFSEDMIPTVGFNMRKVTKGNVTIKIWDIGGQPRFRSMWERYCRGVNAIVYMIDAADREKIEASRNELHNLLDKPQLQGIPVLVLGNKRDLPNALDEKQLIEKMNLSAIQDREICCYSISCKEKDNIDITLQWLIQHSKSRRS
Q: For B1, which binding is on record?
A: binds
